Experimental data as given in PMC5435804.
Negatives hold for the conditions tested. Where a protein sequence is shown, tags need not be part of it.

Tested on: T1, rCosR (CosR-His6)
T1 sequence (looked up): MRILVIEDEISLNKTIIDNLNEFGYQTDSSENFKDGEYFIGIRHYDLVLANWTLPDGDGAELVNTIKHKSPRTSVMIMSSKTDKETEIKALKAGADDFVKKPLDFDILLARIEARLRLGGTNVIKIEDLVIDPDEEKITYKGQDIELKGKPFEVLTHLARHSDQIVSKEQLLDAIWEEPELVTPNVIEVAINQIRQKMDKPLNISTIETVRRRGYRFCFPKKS
Test: EMSA
Conditions: sheared salmon sperm DNA competitor, 20 mM Tris-HCl pH 8.0, 150 mM NaCl, 5 mM MgCl2, 10 mM KCl, 10 ug/ml sheared salmon sperm DNA, 10% glycerol, 20 ul, room temperature 30 min, native 6% PAGE in 0.5x TBE, recombinant protein, residues 1-223, protein details: N-terminal His6 (pET-15b, NdeI/BamHI), probe letters rebuilt from the primers and the genome

“CGTGCATCCCAGTGTTCTATTTTTTTAGCACCTAAATCATGTAAAACAGCTCTAATAGGAGTGATTTCATCTGCACCAATAACCAAAACTGACATAAATTCTCCTTTGTGATTTTTAAAATATATTTTGATAATTATTATTATAATATAAAAAAACTAAATTTATTTTGAAATTTATTATCAATAAAATGCAATTATTCAGTTAATTTTAATTTTTAATAGATATAATTTACTAATTAATAAAATTTATTATTTAGGAGAAAACAATGAAAAAATTGACTAACGATTTTGGAAACATTATAGCTGATAACCAAAATTCATTAAGCGCAGGCGCAAAA (double strand) [katA promoter 337 bp]”: binds (10 uM rCosR, positive control).

“AAAAGAGACATCATAACCTTTCAAAAATTTAAAAAATAATTTTAGTTTATACAATAACCAAACTTAAATAAAATATAAAAATAGAAATAAAGATAAATTTTTTGCACCGAAGGTGCAAAATTGTTAAGATTTTTTAGGGAAGCAGAAACGGTATCCTCTACGACGAACTGTTTCTATGGTAGATATATTTAATGGTTTATCCATTTTTTGACGAATTTGATTGATAGCTACTTCGATAACATTTGGAGTTACTAGCTCAGGTTCTTCCCAGATGGCATCTAAAAGTTGTTCTTTGGATACAATTTGATCCGAATGTCTTGCTAAGTGCGTTAAAACTTCAAAAGGTTTTCCTTTAAGTTCTATATCTTGACCTTTATAAGTAATTTTTTCCTCATCTGGATCAATAACTAAGTCTTCAATTTTAATAACATTGGTTCCGCCAAGTCTTAGTCTTGCTTCAATTCTTGCGAGTAGAATATCAAAA (double strand) [cosR internal region 484 bp]”: no binding (10 uM rCosR).

“TGGTATATTAGATTTCGAAAGAAGAAAAAAACAAAAAATTATTATCAAACTTAAAGCTAAAGCAAATGAATTTTTAAATTATGCAGAGGTAATTACCAAAATTAAAAAATGGTATAAAAAAGAAGAATTTTACACCCTTGAAGAGTCTTTAGACTTTGTAAGCTTAAATTTAAAAAAAGATTTTCCTAATTTAACCAATCTTAACATAAAAATTTTCAAACCCCATATAATAAAAAATGCTACAGTTGGGTTAAATTGAAAAAAAATATTAATTTTTTTTTAAAGATATCTAAACATTTACTTAAGCTATGATATAATTCTTTAAATTTTTCTTAATAAGGATAGAACAAATGAGAATTTTAGTTATAGAAG (double strand) [cosR promoter 374 bp]”: binds (1-10 uM rCosR titration).
